Experimental data published in US20120316113A1, “FGF BASED FIBRIN BINDING PEPTIDES” (Baxter Healthcare S.A., priority 2011, published 2012).
No constants are given. Whether binding was seen depends on the method and setting. Some entries that bind do so weakly or less than the wild type. Tags and fused reporters may be left off the sequences shown.

Sequences of proteins named here, by UniProt entry; tags and fusion partners are left off. A change or cut given only in a name is not applied to a line headed by its entry.
UniProt P02671: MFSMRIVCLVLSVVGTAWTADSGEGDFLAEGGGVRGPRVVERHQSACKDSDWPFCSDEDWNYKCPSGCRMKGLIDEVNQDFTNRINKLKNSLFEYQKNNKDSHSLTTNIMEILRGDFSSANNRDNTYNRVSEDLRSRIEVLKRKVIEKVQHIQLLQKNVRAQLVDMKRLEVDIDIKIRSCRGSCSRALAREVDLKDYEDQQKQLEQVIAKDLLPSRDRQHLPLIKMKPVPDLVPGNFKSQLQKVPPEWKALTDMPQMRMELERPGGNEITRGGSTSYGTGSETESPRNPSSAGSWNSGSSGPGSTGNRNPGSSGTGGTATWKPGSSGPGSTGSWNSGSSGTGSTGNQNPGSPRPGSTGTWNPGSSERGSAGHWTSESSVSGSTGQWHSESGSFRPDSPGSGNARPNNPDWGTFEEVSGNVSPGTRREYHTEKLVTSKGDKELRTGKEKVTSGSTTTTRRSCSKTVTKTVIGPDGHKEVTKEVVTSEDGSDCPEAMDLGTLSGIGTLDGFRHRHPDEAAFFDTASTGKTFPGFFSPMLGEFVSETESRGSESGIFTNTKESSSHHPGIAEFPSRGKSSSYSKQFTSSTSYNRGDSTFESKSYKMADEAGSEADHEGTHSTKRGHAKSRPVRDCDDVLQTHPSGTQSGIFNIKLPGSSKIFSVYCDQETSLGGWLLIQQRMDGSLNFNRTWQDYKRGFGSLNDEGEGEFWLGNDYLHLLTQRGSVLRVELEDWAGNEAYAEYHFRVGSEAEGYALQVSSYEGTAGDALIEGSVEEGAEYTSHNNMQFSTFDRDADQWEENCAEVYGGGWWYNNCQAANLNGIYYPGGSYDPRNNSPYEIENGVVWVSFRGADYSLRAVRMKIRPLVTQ

B1: hFGF-2 peptide pep1 (peptide)
peptide: EERGVVSIKGVCANRYLAMKEDGRLLASKCVTDECFFFERLESNNYNTYRSRHHHHHH

Molecular target: fibrinogen (Tisseel, Baxter AG, Vienna) (UniProt P02671)
Test: ELISA on coated fibrinogen

binding | Binder
binds | EDGRLLASKCVTDECFFFERLESNNYNTYRSRHHHHH [hFGF-2 peptide pep3 (37 aa), synthetic, with C-terminal 5x HIS-tag]
binds | B1
binds | FERLESNNYNTYRSRHHHHH [hFGF-2 peptide pep5 (20 aa), synthetic, with C-terminal 5x HIS-tag]
binds | VCANRYLAMKEDGRLLASKCVTDECFFFERLESNNYNTYRSRHHHHHH [hFGF-2 peptide pep2]

Molecular target: fibrinogen (Tisseel, Baxter AG, Vienna) (UniProt P02671)
Test: SPR, fibrinogen amine-coupled to a gold chip

binding | Binder
binds | EDGRLLASKCVTDECFFFERLESNNYNTYRSRHHHHH [hFGF-2 peptide pep3 (37 aa), synthetic, with C-terminal 5x HIS-tag]
binds | B1
binds | FERLESNNYNTYRSRHHHHH [hFGF-2 peptide pep5 (20 aa), synthetic, with C-terminal 5x HIS-tag]
binds | KCVTDECFFFERLESNNYNTYRSRHHHHH [hFGF-2 peptide pep4 (29 aa), synthetic, with C-terminal 5x HIS-tag]
binds | VCANRYLAMKEDGRLLASKCVTDECFFFERLESNNYNTYRSRHHHHHH [hFGF-2 peptide pep2]

Molecular target: fibrin (plate-coated Tisseel fibrinogen treated with thrombin) (UniProt P02671)
Test: ELISA on fibrin (coated fibrinogen treated with thrombin)

binding | Binder
binds | EDGRLLASKCVTDECFFFERLESNNYNTYRSRHHHHH [hFGF-2 peptide pep3 (37 aa), synthetic, with C-terminal 5x HIS-tag]
binds | B1
binds | FERLESNNYNTYRSRHHHHH [hFGF-2 peptide pep5 (20 aa), synthetic, with C-terminal 5x HIS-tag]
binds | VCANRYLAMKEDGRLLASKCVTDECFFFERLESNNYNTYRSRHHHHHH [hFGF-2 peptide pep2]

Molecular target: fibrinogen (Tisseel, Baxter AG, Vienna) (UniProt P02671)
Test: ELISA on coated fibrinogen, anti-His6-peroxidase detection

binding | Binder
binds | EDGRLLASKCVTDECFFFERLESNNYNTYRSRHHHHH [hFGF-2 peptide pep3 (37 aa), synthetic, with C-terminal 5x HIS-tag]
binds | B1
binds | FERLESNNYNTYRSRHHHHH [hFGF-2 peptide pep5 (20 aa), synthetic, with C-terminal 5x HIS-tag]
binds | KCVTDECFFFERLESNNYNTYRSRHHHHH [hFGF-2 peptide pep4 (29 aa), synthetic, with C-terminal 5x HIS-tag]
binds | VCANRYLAMKEDGRLLASKCVTDECFFFERLESNNYNTYRSRHHHHHH [hFGF-2 peptide pep2]

Molecular target: fibrinogen (Tisseel, Baxter AG, Vienna) (UniProt P02671)
Test: SPR, fibrinogen amine-coupled to a gold chip; fitted association curves

binding | Binder
binds | KCVTDECFFFERLESNNYNTYRSRHHHHH [hFGF-2 peptide pep4 (29 aa), synthetic, with C-terminal 5x HIS-tag]
